The source of these data is PubChem BioAssay AID1458 (National Center for Advancing Translational Sciences (NCATS), 2008).

The campaign covered roughly 210,000 compounds. About 5,900 (2.8%) were called active. About 5% were inconclusive and are not listed. The call rests on the fitted dose curve; in most records, active means well fitted activation curve with a large enough effect; inconclusive means small, poorly fitted or top-dose-only effect; inactive means no such curve, though single readings can be large or run the other way. Only a part is listed here, and it is no random draw. Where no call is shown, the source filed none.
Potency means the concentration at half of the fitted maximal effect.

The nature of the test: qHTS Assay for Enhancers of SMN2 Splice Variant Expression. Further: nearly all actives have a fitted effect of over 55% in size. On activity change, positive = activation: % of control where 0% means no effect. Conditions: HEK293 SMN2-luciferase splicing reporter, luminescence, 30-36 h; activity change, positive = activation: at 46.1 µM (top of the series) unless noted. The essentials:
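HEK293 cells carry an SMN2 minigene-luciferase reporter in which exon 7 inclusion puts luciferase in frame. Cells were seeded at 2000 cells/well, attached for 10-12 hours, then exposed to compounds for 30-36 hours at 37C before ONE-Glo luminescence.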
Regarding `N#Cc1c(N2CCN(C(=O)c3ccco3)CC2)nc(-c2ccccc2)c2c1CCCC2`, the “activity change, positive = activation” value is inactive: -44.1%. On the same count and under the same terms, with `CC(=O)Oc1ccccc1N1C(=O)c2ccc(C(=O)O)cc2C1=O` the figure was 31.7%. Same read-out and setting: under `O=C(CSc1nnnn1-c1ccc2c(c1)OCCO2)Nc1nc2c(s1)CCCC2` stands inactive: -33.4%; under `Cc1cccc(Nc2nnc(-c3ccc(C)c(S(=O)(=O)N4CCN(C)CC4)c3)c3ccccc23)c1`, inactive: -35.5%. In the case of `Cc1csc(SCC(=O)Nc2sccc2C(N)=O)n1`, the Potency is active: 12.6 µM.

On to `CCn1c(SCC(=O)N(C(C)C)C(C)C)nnc1-c1cc2ccccc2cc1O`, for which the activity change, positive = activation was -7.36%. Still for that read-out and setting: with `COC(=O)C1=C(C)Nc2c(c(=O)n(C)c(=O)n2C)C1c1ccncc1` (stereo not drawn) the figure was 38%. With `CC(=O)Nc1ccc(-c2csc(Nc3ncccn3)n2)cc1`, the Potency was active: 5.01 µM. On to `CSc1cccc(NS(=O)(=O)c2ccc3c(c2)oc(=O)n3C)c1`, for which the “activity change, positive = activation” value was inactive: -30.7%. The same measure, in the same setting: under `Cc1ccc(-c2cc(-c3ccccc3)no2)c(O)c1` stands -41.3%.

For the molecule `Cc1cnc(NC(=O)C2COc3ccccc3O2)s1` (stereo not drawn), the Potency is active: 10 µM. Take `COc1cc(/C=N/NC(=S)NCCN2CCOCC2)cc(OC)c1O`: the activity change, positive = activation amounted to 41%. On the same count and under the same terms, with `COc1ccc(-c2oc3ncn4nc(Cc5ccccc5)nc4c3c2-c2ccc(OC)cc2)cc1` the figure was 42.7%; with `O=C(Nc1ccccn1)C12CC3CC(C1)CC(C(=O)Nc1ccccn1)(C3)C2`, -46%. Same read-out and setting: with `CC(=C1C(=O)c2ccccc2C1=O)N1CCN(c2ccccn2)CC1` the figure was 31.4%; with `O=C(COC(=O)c1cc[n+]([O-])cc1)Nc1ccc(F)c([N+](=O)[O-])c1`, -31.5%.

Consider `Cc1ccc(/C=C/C(=O)Nc2ccccc2C(N)=O)o1`, for which the Potency is active: 11.2 µM. In the case of `S=C(Nc1ccccc1Cl)N1CCN(Cc2ccccc2)CC1`, the “activity change, positive = activation” value is inactive: -44.4%. Consider `CC(C)(C)c1ccc(C(=O)Nc2onc3c2CCCC3)cc1`, for which the Potency was active: 11.2 µM. On to `COc1ccc(-n2nc3cc(C)c(NC(C)=O)cc3n2)cc1`, for which the Potency is active: 1.58 µM. Same read-out and setting: with `Nc1nc2ccc(-c3nc4ccccc4o3)cc2s1` the figure was active: 7.94 µM.

On to `O=c1nc2c(O)cccn2c2c1c(=O)[nH]c1ccccc12`, for which the activity change, positive = activation is -71.4%.

As for `O=C(CCSCCC(=O)NCC1CCCO1)NCC1CCCO1` (stereo not drawn), the activity change, positive = activation was 47.5%. Regarding `CCOC(=O)c1cc(C(=O)Nc2ccccc2F)nn1C`, the Potency was active: 12.6 µM.

Regarding `CCN(CC)C(=O)Cc1cc(C(=O)O)c2ccccc2n1`, the activity change, positive = activation is 54.1%. Consider `Cc1ccccc1-c1cc(-c2ccccc2O)n[nH]1`, for which the Potency was active: 25.1 µM. Turning to `Cc1nn(Cc2c(Cl)cccc2Cl)c(C)c1NC(=O)c1cn(-c2ccccc2)nc1-c1ccccc1`, the activity change, positive = activation was -80%.

Take `Cc1ccc2nc(NC(=O)/C=C/c3ccc4c(c3)OCO4)sc2c1`: the “activity change, positive = activation” value was inactive: -58.7%. The same measure, in the same setting: under `O=[N+]([O-])c1c(NCCO)cc(N2CCC3(CC2)OCCO3)c2nonc12` stands 40%. Regarding `Cc1ccc(O)c(C2=Nc3ccccc3N=C(c3cccs3)C2)c1`, the “activity change, positive = activation” value was inactive: -22.1%. On the same count and under the same terms, with `CCOc1cc(N2CCOCC2)c(OCC)cc1NC(=O)CN1CCC(Cc2ccccc2)CC1` the figure was -58.4%; with `S=c1[nH]nc(-c2ccccc2Cl)n1CC1CCCO1` (stereo not drawn), 37.4%.

For `Cc1ccccc1-c1n[nH]c(=S)n1/N=C/c1c(C)nn(-c2ccccc2)c1C`, the Potency was active: 14.1 µM. In the case of `Cc1[nH]n(-c2ccccc2)c(=O)c1/C=N/NC(=O)c1ccoc1C`, the activity change, positive = activation is -80.5%. Same read-out and setting: with `C=CCOc1ccc(Br)cc1/C=C1/SC(=Nc2ccc(C(=O)O)cc2)NC1=O` the figure was inactive: -18.1%; with `CCOC(=O)C1=C(C)NC2=C(C(=O)CCC2)C1c1ccc(N(C)C)cc1` (stereo not drawn), 37.7%. In the case of `Cc1cc(C(=O)NC2=NCCS2)cs1`, the Potency was active: 11.2 µM. Consider `C=CS(=O)(=O)c1ccc(Oc2ccc(S(=O)(=O)C=C)cc2)cc1`, for which the “activity change, positive = activation” value is inactive: -92.2%. Turning to `CCC(=O)N1CCN(c2ccc(NC(=O)c3cc4ccccc4o3)cc2Cl)CC1`, the “activity change, positive = activation” value is inactive: -109%. The same measure, in the same setting: under `Cc1ccc(S(=O)(=O)Cc2ccc(C(=O)NCCc3ccc(Cl)cc3)o2)cc1` stands inactive: -39.7%; under `CCCc1ccc(S(=O)(=O)NCCc2ccncc2)cc1`, -99.1%. Turning to `Cc1onc(-c2ccccc2)c1C(=O)NNC(=S)NC(=O)/C=C/c1ccccc1`, the activity change, positive = activation is -86.7%. On the same count and under the same terms, with `O=C(O)c1ccc(CSCc2c(F)cccc2Cl)o1` the figure was 44.7%; with `COC(=O)c1sc(N2CCN(c3ccc(Cl)cc3)CC2)nc1N`, inactive: -64.9%. `CCOC(=O)c1ccc(NC(=O)c2ccccc2)cc1`: the Potency was active: 10 µM. Consider `O=C(NC1CCCCCC1)C1CCN(C(=O)Cc2ccccc2)CC1`, for which the activity change, positive = activation amounted to 30.1%.

As to `Cc1ccc(-n2c(N)c(C(=O)Nc3ccccc3F)sc2=S)cc1C`, the “activity change, positive = activation” value is inactive: -49.5%.

In the case of `COC(=O)c1cccc(Nc2ncnc3sccc23)c1`, the “activity change, positive = activation” value was inactive: -41.3%. Turning to `CCN(CC)C(=O)CSc1nc(-c2cccs2)cc(-c2cccs2)c1C#N`, the “activity change, positive = activation” value was inactive: -33.2%. The same measure, in the same setting: under `CCn1cc(C(=O)NCc2ccc(C)cc2)c(=O)c2cc(S(=O)(=O)N3CCC(C)CC3)ccc21` stands 29.6%; under `CC1CCCN(C(=O)CCS(=O)(=O)Cc2ccccc2)C1` (stereo not drawn), 34.5%; under `CCc1cc(/C(Cc2csc(C)n2)=N/O)c(O)cc1O`, inactive: -63.5%.

Turning to `Cc1ccc(S(=O)(=O)N2CCCCC2)cc1NC(=O)COC(=O)c1cc[n+]([O-])cc1`, the activity change, positive = activation was found to be 36.8%.
